# Out of some 220,000 compounds screened, about 770 (0.35%) were called active. Inconclusive means that the source gave no clear call. Such entries were picked first, then a sample of the others. Cut-off read from the data, not from the text of the source: active = binding response below about 49% or above about 150%; inconclusive = no clear call, values can overlap the other calls; inactive = in between.
# By UniProt entry, the sequences of proteins in these tests, tags left out.
# UniProt P09471, whole entry, looked up: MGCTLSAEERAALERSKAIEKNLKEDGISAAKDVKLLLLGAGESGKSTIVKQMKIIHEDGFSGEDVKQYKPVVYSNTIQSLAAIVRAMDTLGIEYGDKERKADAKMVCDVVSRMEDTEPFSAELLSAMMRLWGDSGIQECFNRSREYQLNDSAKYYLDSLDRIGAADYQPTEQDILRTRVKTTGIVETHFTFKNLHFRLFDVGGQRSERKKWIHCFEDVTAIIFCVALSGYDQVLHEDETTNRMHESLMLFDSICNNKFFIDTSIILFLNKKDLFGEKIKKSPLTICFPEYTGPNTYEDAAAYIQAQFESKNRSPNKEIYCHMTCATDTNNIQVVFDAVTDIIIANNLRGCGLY
# Molecular target: Guanine nucleotide-binding protein G(o) subunit alpha (Homo sapiens) (UniProt P09471)
# Experiment: RGS7-Galphao binding modulators, primary screen, biochemical, multiplexed bead flow cytometry (AID 1439);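 note: fluorescent Galphao held in activated GDP-AlF4 state binding bead-coupled RGS7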
# Conditions: at 10 µM, actives lie on both sides
row,Structure (SMILES),binding response (% of control)
1,COc1ccc(/C=C2\SC(=S)N(C(C(=O)O)c3ccccc3)C2=O)c(OC)c1 (stereo not given),inconclusive: 74.2%
2,O=S(=O)(/N=C(\[O-])C[n+]1ccccc1)c1ccc(Cl)cc1,inconclusive: 39%
3,Cc1ccc2[nH]c(=O)c3cc(C(=O)N(C)c4ccccc4C)sc3c2c1,inconclusive: 53.4%
4,O=C(CSc1nc2sc3c(c2c(=O)[nH]1)CCC3)NCCO,inconclusive: 100%
5,O=C(Nc1ccc(Cl)c(C(F)(F)F)c1)C(=O)N1CCCCC1,inactive: 94.7%
6,Cc1ccc(NNC(=O)c2cc(C(C)(C)C)nn2Cc2ccccc2)cc1,inconclusive: 32%
7,Cc1ccc2[nH]c3c(c2c1)CN(C(=O)CN1CCN(C(=O)c2ccco2)CC1)CC3,inconclusive: 76.8%
8,Cn1c(Cc2ccccc2)[n+](C)c2ccccc21,inconclusive: 89.5%
9,C[C@@H]1CCC[C@H](C)N1Cc1nc(Cc2ccccc2Cl)no1,inactive: 99.1%
10,CCOC(=O)C1C(c2ccc([N+](=O)[O-])cc2)C2C(=O)NN=C2CC1(C)O (stereo not given),inconclusive: 102%
11,c1ccc(Nc2scc(-c3ccccc3)[n+]2Cc2ccco2)cc1,inconclusive: 82.5%
12,CCCCOP(=O)(OCCCC)C(O)c1ccc(F)cc1 (stereo not given),inconclusive: 120%
13,CNC(=S)N/N=C/c1cc(C)ccc1C,inconclusive: 118%
14,CCc1cc(C(=O)c2ccc(OC)cc2)c(NC(=O)CN2CCN(C)CC2)s1,inconclusive: 108%
15,Cc1cc2ccccn2c1C(=O)c1ccc(Cl)c([N+](=O)[O-])c1,inconclusive: 90.6%
16,COC(=O)c1ccc(NC(=S)NN2CCCCC2c2cccnc2)cc1 (stereo not given),inconclusive: -920%
17,NS(=O)(=O)c1ccc(CNC(=O)c2cc(-c3ccccn3)nc3ccc(Cl)cc23)cc1,inactive: 102%
18,CCC(C)C(NC(=O)c1ccccc1NC(=O)c1ccccc1)C(=O)O (stereo not given),inconclusive: 115%
19,Cc1ccc(C(=O)O)cc1-c1ccc(/C=C2\SC(=O)N(CC(=O)Nc3ccccc3)C2=O)o1,inconclusive: 83.8%
20,C=C(C)CCC1(C)NC(=O)N(c2ccccc2)N1 (stereo not given),inconclusive: 195%
21,Cc1ccc(C(=O)CSc2nnnn2-c2ccccc2)o1,inconclusive: 105%
22,CSCCC1NC(=O)N(CC(=O)N2N=C(c3ccc(Cl)cc3)CC2c2ccco2)C1=O (stereo not given),inconclusive: 92.7%
23,COc1ccc(C(CNC(=O)c2cc(F)c(F)c(F)c2F)N2CCOCC2)cc1 (stereo not given),inconclusive: 104%

row,Structure (SMILES),binding response (% of control)
1,Cc1ccc(/C=N/NC(=O)CSc2ccccn2)o1,inconclusive: 106%
2,COCCN(CCOC)c1ncnc2c1cnn2-c1ccccc1,inconclusive: 77%
3,COc1ccc(/C(O)=C2/C(=O)C(=O)N(Cc3ccco3)C2c2cccs2)cc1 (stereo not given),inactive: 107%
4,Cc1nn(-c2ccccc2)nc1C(=O)Nc1nnc(C(F)(F)F)s1,inconclusive: 158%
5,CCOC(=O)c1sc(NC(=O)COC(=O)CNC(=O)C2CCCCC2)c(C(=O)OCC)c1C,inactive: 104%
6,N#C/C(=N/Nc1ccccc1[N+](=O)[O-])C(N)=S,inconclusive: 100%
7,Cn1c(=O)oc2cc(S(=O)(=O)NCc3cccnc3)ccc21,inconclusive: 99.2%
8,NC(=O)NOCc1c(Cl)cccc1Cl,inconclusive: 115%
9,COC(=O)c1cnn(-c2ccc(F)cc2F)c1/C=N/NC(N)=S,inconclusive: 58.8%
10,CCC(CC)C(=O)Nc1cccc(C(=O)c2ccccc2)c1,inactive: 100%
11,Cc1ccc2c(c1)c1c(n2CC(O)CNC2CCCCC2)CCCC1 (stereo not given),inconclusive: 105%
12,c1ccc(C2c3[nH]c4ccccc4c3CCN2Cc2cccn2-c2ccccn2)nc1 (stereo not given),inconclusive: 99.7%
13,O=C(N/N=C/c1ccncc1)c1nc2ccccc2c(=O)[nH]1,inconclusive: 400%
14,COc1ccc(CNc2nc(-c3cccnc3)nn2C(=O)c2cccs2)cc1,inactive: 101%
15,S=C(NC1CCCCC1)N1CCOCC1,inconclusive: 98%
16,Cc1ccc(C(=O)NN2C(=O)C3C(C2=O)C2C=CC3C23CC3)cc1 (stereo not given),inactive: 72.8%
17,O=C(Nc1ccc(CN2CCS(=O)(=O)CC2)cc1)c1ccc(F)cc1,inconclusive: 118%
18,CC1CN=C(N(C(=O)Nc2ccccc2)C(C)c2ccccc2)S1 (stereo not given),inconclusive: 119%
19,CC(=O)Nc1nc(C)c(C(C)C)s1,inconclusive: 107%
20,COc1ccc(CCNC(=S)NCCc2ccc(OC)c(OC)c2)cc1OC,inconclusive: 116%
21,CCNC(=S)N1CCN(CC)CC1,inconclusive: 98.7%
22,O=C1NC(=S)S/C1=C\c1cc2ccccc2nc1N1CCCCC1,inconclusive: 111%
23,COc1ccc(NC(=O)CNS(=O)(=O)c2ccc(Cl)cc2)cc1,inactive: 104%

row,Structure (SMILES),binding response (% of control)
1,CC12CCC(C(=O)Nc3cc(F)ccc3F)(CC1=O)C2(C)C (stereo not given),inconclusive: 112%
2,COc1ccc(-c2noc(CCC(=O)NCC3CCCO3)n2)cc1 (stereo not given),inconclusive: 88.2%
3,COc1ccc(Nc2nc(NCc3ccco3)nc(N)c2[N+](=O)[O-])cc1,inconclusive: 132%
4,O=C(NNc1c(Cl)cccc1Cl)c1sccc1Cl,inconclusive: 96.5%
5,CCOc1ccc2[nH]c3c(=O)n(CCc4ccc(OC)cc4)cnc3c2c1,inconclusive: 82.4%
6,COc1ccc2c(c1)c(C(=O)N/N=C/c1ccccc1Cl)c(C)n2C,inconclusive: 98.3%
7,CC(C)C(=O)N(Cc1ccc(F)cc1)Cc1nc2ccccc2c(=O)[nH]1,inactive: 99.7%
8,COC(=O)CCCC1=CC2=CC(=O)C(C)(OC(=O)c3cccs3)C(=O)C2=CN1Cc1ccco1 (stereo not given),inconclusive: 142%
9,CCOC(=O)c1[nH]c(CO)c(C(=O)OCC)c1C,inconclusive: 212%
10,COC(C[C@H]1O[C@H]1[C@@H](O)[C@@H](C)OCc1ccccc1)OC,inconclusive: 110%
11,S=C(Nc1ccccc1Cl)NC1CCCCCC1,inactive: 107%
12,COC(=O)c1ccc(OC)c(OC2CCCC2)c1,inconclusive: 86.4%
13,CCOc1cc(/C=N\NC(=O)CN2CCOCC2)ccc1OCc1ccc(F)cc1,inactive: 84.7%
14,O=C(O)COc1ccccc1/C=N/NC(=O)CSc1nc2ccccc2n1Cc1ccccc1Cl,inconclusive: 91.2%
15,CC(C)(C)OC(=O)N1CCCN(C(=O)Nc2cccc(Cl)c2)CC1,inconclusive: 323%
16,Cc1cc(C)nc(/N=C2\NC(=O)CC3C(=O)NCCN23)n1 (stereo not given),active: 12.4%
17,Cc1ccc(-c2[nH]ncc2/C=N/n2c(C)nc3ccccc3c2=O)cc1,inconclusive: 91.9%
18,Cc1nc([N+](=O)[O-])cn1-c1nc2ccccn2c1[N+](=O)[O-],inconclusive: -26.5%
19,COc1ccc(C(=O)N2CCC(n3nnc4cc(F)ccc43)CC2)cc1OC,inconclusive: 98%
20,COc1ccc(C(=O)COc2ncnc3cc(Cl)ccc23)cc1,inconclusive: 98%
21,O=C(Oc1cccc2cccnc12)c1ccco1,inactive: 95.8%
22,S=c1nc(-c2ccc(Br)cc2)[nH]c2ccccc12,inconclusive: 12.4%
23,O=C(/C=C/c1ccccc1)/C=C/c1ccccc1,inactive: 93.5%

row,Structure (SMILES),binding response (% of control)
1,COc1ccc(Nc2n[nH]c(C)c2[N+](=O)[O-])cc1,inconclusive: 95.8%
2,CS(=O)(=O)Nc1ccc(N2CCN(c3ccc(C(F)(F)F)cn3)CC2)nc1,inconclusive: 81%
3,COCCSc1nnc(NC(=O)c2ccc(OC)c([N+](=O)[O-])c2)s1,inactive: 99.1%
4,CCOC(=O)C1CCCN(CC(=O)Nc2cc(C)cc(C)c2)C1 (stereo not given),inconclusive: 106%
5,CC(=O)Nc1ccc(S(=O)(=O)N2CCN(Cc3nc4sc(C)c(C)c4c(=O)[nH]3)CC2)cc1,inconclusive: 79.5%
6,NC(=O)C1(C(N)=O)OC1c1ccc(Cl)c(Cl)c1 (stereo not given),inconclusive: 95.3%
7,NC(=O)[C@H]1CC2(CC(c3cccc(NC(=O)[C@H]4CCC(=O)N4)c3)=NO2)CN1C(=O)c1cc([N+](=O)[O-])cc([N+](=O)[O-])c1 (stereo not given in full),inconclusive: 97.1%
8,COC(=O)c1cccnc1-n1c(=O)c2cccnc2n(CC(=O)Nc2ccc(Br)cc2)c1=O,inconclusive: 118%
9,Nc1nnc(CC(=O)N/N=C/c2ccc(-c3cccc(C(=O)O)c3)o2)s1,inconclusive: 95.4%
10,COC(=O)c1c(-c2c(Cl)cccc2Cl)noc1C(=O)NN,inconclusive: 117%
11,Cc1oc(C(N)=O)cc1COc1ccc(C(N)=O)cc1,inconclusive: 88.5%
12,Cc1noc(C)c1COc1cccc(C(=O)Nc2ccccc2N2CCOCC2)c1,inactive: 101%
13,O=C(O)c1cc([N+](=O)[O-])ccc1NCCc1ccccc1,inconclusive: 83.5%
14,CCOC(=O)c1cc2c(=O)[nH]ccc2nc1C(F)(F)F,inconclusive: 29.1%
15,CC1Cc2ccccc2N1C(=O)COc1ccc2c(c1)OCO2 (stereo not given),inconclusive: 86.4%
16,O=C(Cn1cc2c(n1)CCCC2)Nc1cc(-c2cccc(Cl)c2)no1,inactive: 98.5%
17,COC(=O)c1ccc(C23CC4(C2)[C@H](CN(Cc2ccc(-c5ccccc5)cc2)[C@@H]4c2ccccc2)C3c2ccccc2)cc1 (stereo not given in full),inconclusive: 106%
18,Nc1nnc(SCC(=O)OCC(=O)NC23CC4CC(CC(C4)C2)C3)s1,inconclusive: -261%
19,S=C1NC[C@H](CC2CCCCC2)N1CCc1cccc2ccccc12,inconclusive: 107%
20,COc1ccc(CCNC(=O)C2CCC(CNS(=O)(=O)c3ccc(F)cc3)CC2)cc1OC (stereo not given),inconclusive: 70.2%
21,CN(CCNC(=O)C1CCN(S(=O)(=O)N2CCOCC2)CC1)CCc1ccccc1,inactive: 98.6%

# An excerpt of these results, with bars between the fields.
row | Structure (SMILES) | binding response (% of control)
3 | COCCSc1nnc(NC(=O)c2ccc(OC)c([N+](=O)[O-])c2)s1 | inactive: 99.1%
4 | CCOC(=O)C1CCCN(CC(=O)Nc2cc(C)cc(C)c2)C1 (stereo not given) | inconclusive: 106%
5 | CC(=O)Nc1ccc(S(=O)(=O)N2CCN(Cc3nc4sc(C)c(C)c4c(=O)[nH]3)CC2)cc1 | inconclusive: 79.5%
6 | NC(=O)C1(C(N)=O)OC1c1ccc(Cl)c(Cl)c1 (stereo not given) | inconclusive: 95.3%
7 | NC(=O)[C@H]1CC2(CC(c3cccc(NC(=O)[C@H]4CCC(=O)N4)c3)=NO2)CN1C(=O)c1cc([N+](=O)[O-])cc([N+](=O)[O-])c1 (stereo not given in full) | inconclusive: 97.1%
8 | COC(=O)c1cccnc1-n1c(=O)c2cccnc2n(CC(=O)Nc2ccc(Br)cc2)c1=O | inconclusive: 118%
9 | Nc1nnc(CC(=O)N/N=C/c2ccc(-c3cccc(C(=O)O)c3)o2)s1 | inconclusive: 95.4%
10 | COC(=O)c1c(-c2c(Cl)cccc2Cl)noc1C(=O)NN | inconclusive: 117%
11 | Cc1oc(C(N)=O)cc1COc1ccc(C(N)=O)cc1 | inconclusive: 88.5%
12 | Cc1noc(C)c1COc1cccc(C(=O)Nc2ccccc2N2CCOCC2)c1 | inactive: 101%
13 | O=C(O)c1cc([N+](=O)[O-])ccc1NCCc1ccccc1 | inconclusive: 83.5%
14 | CCOC(=O)c1cc2c(=O)[nH]ccc2nc1C(F)(F)F | inconclusive: 29.1%
15 | CC1Cc2ccccc2N1C(=O)COc1ccc2c(c1)OCO2 (stereo not given) | inconclusive: 86.4%
16 | O=C(Cn1cc2c(n1)CCCC2)Nc1cc(-c2cccc(Cl)c2)no1 | inactive: 98.5%
17 | COC(=O)c1ccc(C23CC4(C2)[C@H](CN(Cc2ccc(-c5ccccc5)cc2)[C@@H]4c2ccccc2)C3c2ccccc2)cc1 (stereo not given in full) | inconclusive: 106%
18 | Nc1nnc(SCC(=O)OCC(=O)NC23CC4CC(CC(C4)C2)C3)s1 | inconclusive: -261%
19 | S=C1NC[C@H](CC2CCCCC2)N1CCc1cccc2ccccc12 | inconclusive: 107%
20 | COc1ccc(CCNC(=O)C2CCC(CNS(=O)(=O)c3ccc(F)cc3)CC2)cc1OC (stereo not given) | inconclusive: 70.2%
